From the supplement of paper PMC12823440, “Inhibitors supercharge kinase turnover through native proteolytic circuits” (Nature, 2025)
Structures can show the parent of a compound that is named as a salt. This is one part of the list. The calls rarely recur for the same compound in another form.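 Kinases, fused to nanoluciferase, were expressed in K562 cells; luminescence was measured every 4 h from 2 to 18 h as percent of control (DMSO = 100%, positive control = 0%). A time point is decreased if signal falls significantly (2 sigma). Hits were called by the authors by a rule that is not shown; the count of time points alone does not decide it.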

Sequences of proteins named here, by UniProt entry; tags and fusion partners are left off. A change or cut given only in a name is not applied to a line headed by its entry.
UniProt Q01974, whole entry: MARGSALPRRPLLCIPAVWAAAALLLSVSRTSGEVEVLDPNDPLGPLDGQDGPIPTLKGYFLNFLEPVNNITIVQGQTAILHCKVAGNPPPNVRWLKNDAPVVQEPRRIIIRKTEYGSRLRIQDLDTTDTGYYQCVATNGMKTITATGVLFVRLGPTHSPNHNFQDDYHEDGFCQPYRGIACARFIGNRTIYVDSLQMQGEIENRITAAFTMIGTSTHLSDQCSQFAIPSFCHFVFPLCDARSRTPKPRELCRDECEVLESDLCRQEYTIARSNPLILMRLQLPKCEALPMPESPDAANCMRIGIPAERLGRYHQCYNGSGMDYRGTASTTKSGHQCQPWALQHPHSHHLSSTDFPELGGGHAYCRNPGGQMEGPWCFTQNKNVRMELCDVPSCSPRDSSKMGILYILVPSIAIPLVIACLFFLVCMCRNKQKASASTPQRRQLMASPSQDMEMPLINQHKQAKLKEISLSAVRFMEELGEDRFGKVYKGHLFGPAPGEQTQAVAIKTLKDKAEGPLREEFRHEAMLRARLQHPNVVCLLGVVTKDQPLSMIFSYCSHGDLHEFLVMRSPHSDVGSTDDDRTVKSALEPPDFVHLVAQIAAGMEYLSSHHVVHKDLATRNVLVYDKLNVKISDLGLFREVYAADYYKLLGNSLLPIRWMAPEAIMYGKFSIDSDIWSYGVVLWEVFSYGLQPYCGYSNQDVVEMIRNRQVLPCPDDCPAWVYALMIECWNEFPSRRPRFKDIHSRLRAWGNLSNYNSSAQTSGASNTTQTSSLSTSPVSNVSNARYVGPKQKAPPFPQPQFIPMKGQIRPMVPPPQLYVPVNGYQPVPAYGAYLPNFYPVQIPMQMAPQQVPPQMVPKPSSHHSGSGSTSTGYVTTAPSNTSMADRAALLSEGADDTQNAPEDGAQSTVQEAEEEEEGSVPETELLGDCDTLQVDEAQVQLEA
UniProt Q15418, whole entry: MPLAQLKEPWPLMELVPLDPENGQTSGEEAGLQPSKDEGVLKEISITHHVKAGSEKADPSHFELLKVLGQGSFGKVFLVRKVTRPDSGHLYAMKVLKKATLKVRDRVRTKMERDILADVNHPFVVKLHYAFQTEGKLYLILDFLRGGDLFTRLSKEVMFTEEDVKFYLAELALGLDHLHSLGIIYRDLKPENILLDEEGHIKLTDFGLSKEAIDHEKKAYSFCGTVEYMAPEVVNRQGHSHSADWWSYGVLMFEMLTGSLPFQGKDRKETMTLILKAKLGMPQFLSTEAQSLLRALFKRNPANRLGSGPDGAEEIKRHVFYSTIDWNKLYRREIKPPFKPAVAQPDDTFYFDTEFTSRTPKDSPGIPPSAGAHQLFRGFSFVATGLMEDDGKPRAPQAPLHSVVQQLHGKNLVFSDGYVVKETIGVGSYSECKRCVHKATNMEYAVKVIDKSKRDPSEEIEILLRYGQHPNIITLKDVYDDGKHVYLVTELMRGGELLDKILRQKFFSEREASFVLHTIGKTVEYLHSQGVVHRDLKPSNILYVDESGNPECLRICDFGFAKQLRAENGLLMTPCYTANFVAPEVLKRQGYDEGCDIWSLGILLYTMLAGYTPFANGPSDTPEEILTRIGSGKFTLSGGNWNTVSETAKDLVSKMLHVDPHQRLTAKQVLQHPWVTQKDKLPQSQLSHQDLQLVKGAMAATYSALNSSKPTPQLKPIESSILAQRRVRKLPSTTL
UniProt Q9NYA1, whole entry: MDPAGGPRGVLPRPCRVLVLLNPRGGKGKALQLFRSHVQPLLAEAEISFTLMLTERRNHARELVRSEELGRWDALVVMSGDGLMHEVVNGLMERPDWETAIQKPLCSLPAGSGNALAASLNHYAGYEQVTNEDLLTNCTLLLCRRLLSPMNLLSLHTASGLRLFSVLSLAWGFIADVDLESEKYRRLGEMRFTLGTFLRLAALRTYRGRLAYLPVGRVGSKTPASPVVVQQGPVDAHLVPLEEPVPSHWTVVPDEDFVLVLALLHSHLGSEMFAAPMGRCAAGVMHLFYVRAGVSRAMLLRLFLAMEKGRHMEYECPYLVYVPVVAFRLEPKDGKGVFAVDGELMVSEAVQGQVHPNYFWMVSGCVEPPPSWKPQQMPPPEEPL
UniProt Q9Y6E0: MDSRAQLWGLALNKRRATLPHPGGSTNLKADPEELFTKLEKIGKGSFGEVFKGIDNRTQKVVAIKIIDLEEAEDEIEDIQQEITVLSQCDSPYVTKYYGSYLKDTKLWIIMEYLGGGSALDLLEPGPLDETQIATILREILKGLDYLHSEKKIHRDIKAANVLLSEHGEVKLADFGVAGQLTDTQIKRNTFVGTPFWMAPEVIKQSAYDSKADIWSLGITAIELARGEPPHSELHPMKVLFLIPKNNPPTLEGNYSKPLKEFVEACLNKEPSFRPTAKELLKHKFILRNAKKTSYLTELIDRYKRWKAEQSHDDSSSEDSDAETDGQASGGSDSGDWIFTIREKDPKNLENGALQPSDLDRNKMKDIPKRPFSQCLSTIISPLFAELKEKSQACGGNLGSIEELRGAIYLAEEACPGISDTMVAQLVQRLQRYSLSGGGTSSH
UniProt Q15208: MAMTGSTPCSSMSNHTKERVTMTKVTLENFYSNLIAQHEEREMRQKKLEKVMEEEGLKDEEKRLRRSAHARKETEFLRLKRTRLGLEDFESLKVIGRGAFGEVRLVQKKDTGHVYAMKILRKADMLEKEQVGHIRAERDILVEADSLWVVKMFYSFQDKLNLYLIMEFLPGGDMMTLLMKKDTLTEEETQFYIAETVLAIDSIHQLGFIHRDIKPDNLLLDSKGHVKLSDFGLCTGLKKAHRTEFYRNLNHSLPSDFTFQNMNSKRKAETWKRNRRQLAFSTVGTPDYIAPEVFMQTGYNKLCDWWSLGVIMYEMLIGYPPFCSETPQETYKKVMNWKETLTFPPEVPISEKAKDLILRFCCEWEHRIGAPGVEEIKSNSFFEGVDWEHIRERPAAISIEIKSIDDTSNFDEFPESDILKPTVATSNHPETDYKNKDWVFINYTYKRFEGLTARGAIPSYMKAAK
UniProt P42680: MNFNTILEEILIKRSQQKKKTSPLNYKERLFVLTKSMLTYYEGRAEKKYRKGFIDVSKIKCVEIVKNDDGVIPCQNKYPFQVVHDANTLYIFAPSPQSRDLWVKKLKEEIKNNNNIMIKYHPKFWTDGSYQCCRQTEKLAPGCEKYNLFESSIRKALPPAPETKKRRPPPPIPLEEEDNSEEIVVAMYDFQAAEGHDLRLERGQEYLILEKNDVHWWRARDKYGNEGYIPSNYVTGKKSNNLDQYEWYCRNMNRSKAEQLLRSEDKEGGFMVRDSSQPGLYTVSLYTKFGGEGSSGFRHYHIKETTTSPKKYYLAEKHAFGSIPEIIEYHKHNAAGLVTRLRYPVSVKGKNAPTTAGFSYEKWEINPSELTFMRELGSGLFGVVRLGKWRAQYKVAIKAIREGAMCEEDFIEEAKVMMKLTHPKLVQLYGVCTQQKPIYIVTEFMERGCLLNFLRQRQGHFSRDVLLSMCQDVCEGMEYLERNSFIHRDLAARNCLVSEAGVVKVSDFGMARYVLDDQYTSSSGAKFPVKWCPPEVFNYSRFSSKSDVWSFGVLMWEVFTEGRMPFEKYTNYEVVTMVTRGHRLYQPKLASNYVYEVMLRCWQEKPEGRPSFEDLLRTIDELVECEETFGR
UniProt P29597: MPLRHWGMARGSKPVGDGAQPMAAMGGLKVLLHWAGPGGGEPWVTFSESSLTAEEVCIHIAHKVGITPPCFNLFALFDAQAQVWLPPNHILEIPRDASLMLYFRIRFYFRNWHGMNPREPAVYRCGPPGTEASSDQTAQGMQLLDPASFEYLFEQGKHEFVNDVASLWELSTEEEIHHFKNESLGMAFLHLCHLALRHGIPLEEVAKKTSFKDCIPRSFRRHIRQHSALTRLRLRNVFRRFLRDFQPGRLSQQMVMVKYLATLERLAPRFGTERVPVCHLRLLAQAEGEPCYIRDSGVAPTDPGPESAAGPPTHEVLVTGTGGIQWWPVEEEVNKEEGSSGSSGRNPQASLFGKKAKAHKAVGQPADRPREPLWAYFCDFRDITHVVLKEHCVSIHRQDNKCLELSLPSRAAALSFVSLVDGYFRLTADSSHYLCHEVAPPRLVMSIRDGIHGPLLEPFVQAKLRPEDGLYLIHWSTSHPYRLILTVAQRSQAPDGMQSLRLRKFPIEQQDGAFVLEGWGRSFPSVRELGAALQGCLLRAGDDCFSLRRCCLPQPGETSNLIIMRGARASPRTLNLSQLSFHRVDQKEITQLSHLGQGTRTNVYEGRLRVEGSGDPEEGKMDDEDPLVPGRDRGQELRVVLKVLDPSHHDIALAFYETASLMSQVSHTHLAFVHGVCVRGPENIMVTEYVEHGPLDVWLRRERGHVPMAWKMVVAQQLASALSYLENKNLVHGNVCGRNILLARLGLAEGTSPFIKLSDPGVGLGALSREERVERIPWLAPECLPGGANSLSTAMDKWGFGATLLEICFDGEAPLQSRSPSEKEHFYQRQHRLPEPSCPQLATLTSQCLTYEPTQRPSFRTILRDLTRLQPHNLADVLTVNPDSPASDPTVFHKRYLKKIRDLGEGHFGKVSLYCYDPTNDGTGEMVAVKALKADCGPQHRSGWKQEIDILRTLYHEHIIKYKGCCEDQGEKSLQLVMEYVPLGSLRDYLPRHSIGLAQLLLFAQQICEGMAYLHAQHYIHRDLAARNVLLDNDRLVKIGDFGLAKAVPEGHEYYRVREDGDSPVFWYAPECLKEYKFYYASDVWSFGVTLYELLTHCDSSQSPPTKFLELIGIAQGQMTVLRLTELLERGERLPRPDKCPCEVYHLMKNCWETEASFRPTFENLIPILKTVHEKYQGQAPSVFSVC
UniProt Q6PHR2: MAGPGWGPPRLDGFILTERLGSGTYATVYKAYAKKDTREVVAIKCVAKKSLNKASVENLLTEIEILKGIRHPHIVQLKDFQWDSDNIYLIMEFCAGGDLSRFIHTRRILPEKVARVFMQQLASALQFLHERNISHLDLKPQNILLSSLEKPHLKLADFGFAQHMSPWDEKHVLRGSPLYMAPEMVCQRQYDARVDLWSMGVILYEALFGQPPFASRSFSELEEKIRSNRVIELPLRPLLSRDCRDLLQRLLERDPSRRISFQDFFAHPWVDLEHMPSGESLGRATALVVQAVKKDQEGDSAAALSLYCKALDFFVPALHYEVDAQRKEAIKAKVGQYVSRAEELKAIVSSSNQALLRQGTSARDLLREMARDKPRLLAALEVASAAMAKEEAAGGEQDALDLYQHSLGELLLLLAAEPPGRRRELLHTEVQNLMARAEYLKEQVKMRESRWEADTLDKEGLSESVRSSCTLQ

Legend:
Experiment in all cases: number of time points (of 5) at which kinase-Nluc abundance scored as decreased, DMSO-normalised (count); higher = more persistent destabilization
Settings in all cases: K562; 2-18 h
ROR2 = ROR2 (UniProt Q01974)
RPS6KA1 = RPS6KA1 (UniProt Q15418)
SPHK1 = SPHK1 (UniProt Q9NYA1)
SRC = SRC (UniProt P12931)
STK24 = STK24 (UniProt Q9Y6E0)
STK38 = STK38 (UniProt Q15208)
SYK = SYK (UniProt P43405)
TEC = TEC (UniProt P42680)
TYK2 = TYK2 (UniProt P29597)
ULK3 = ULK3 (UniProt Q6PHR2)

SMILES	number of time points (ROR2)	number of time points (RPS6KA1)	number of time points (SPHK1)	number of time points (SRC)	number of time points (STK24)	number of time points (STK38)	number of time points (SYK)	number of time points (TEC)	number of time points (TYK2)	number of time points (ULK3)
CC1C(=O)OC2C(O)C34C5OC(=O)C3(OC3OC(=O)C(O)C34C(C(C)(C)C)C5O)C12O (stereo not given) [Ginkgolide C] (10 µM)	0	0	0	0	0	0	0	0	0	0
O=C1C=CC[C@@H]2[C@H]3CCCN4CCC[C@@H](CN12)[C@@H]34 [Sophocarpine (monohydrate)] (2.5 µM)	0	0	0	0	0	0	0	0	0	0
CC(C)=CC[C@@H](OC(=O)CC(C)(C)O)C1=CC(=O)c2c(O)ccc(O)c2C1=O [β-Hydroxyisovalerylshikonin] (2.5 µM)	0	0	0	0	0	0	0	0	0	0
C[C@H](CCC(=O)O)C[C@H](C)C[C@H](C)C(=O)/C=C(\O)[C@H](C)C[C@H](C)C/C=C/[C@@H](C)[C@@H](O)[C@@H](C)[C@@H](O)C[C@@H]1CC[C@@](C)([C@H]2CC[C@@](C)([C@@H](C)O)O2)O1 [Ionomycin (calcium)] (2.5 µM)	0	0	1	0	0	5	0	0	0	0
COc1ccc(N(C(=O)Oc2c(C)cccc2C)c2ccnc(Nc3ccc(N4CCN(C)CC4)cc3)n2)c(OC)c1 (2.5 µM)	0	0	0	0	0	0	0	0	0	0
COc1ccc2c(c1)/C(=C/c1cnc[nH]1)C(=O)N2 (2.5 µM)	0	0	0	0	0	0	0	0	0	0
Cc1n[nH]cc1-c1cc2nc([C@@H]3CC4CCN3CC4)[nH]c(=O)c2s1 [Simurosertib] (2.5 µM)	0	0	0	0	0	0	0	0	0	0
CCCS(=O)(=O)Nc1ccc(F)c(-n2cc(-c3cncnc3)c3nc(N(C)C4CCN(CC)CC4)ccc32)c1F (2 µM)	0	0	0	0	0	0	0	0	0	0
C[C@H]1CC[C@]2(NC1)O[C@H]1C[C@H]3[C@@H]4CC[C@H]5C[C@@H](O)CC[C@]5(C)[C@H]4CC[C@]3(C)[C@H]1[C@@H]2C [Tomatidine (hydrochloride)] (10 µM)	0	0	0	0	0	0	0	0	0	0
C[C@H](Nc1ncnc2[nH]cnc12)c1nc2ccc(F)cc2c(=O)n1-c1ccccc1 [Acalisib] (10 µM)	0	0	0	0	0	0	0	0	0	0
O=C1c2ccccc2C(=O)c2c1cccc2-c1cnn(C2CCNCC2)c1 [PDK4-IN-1 (hydrochloride)] (10 µM)	0	0	0	0	0	0	0	0	0	1
COc1ccc2c(c1OC)C(OC)N(C)c1c-2ccc2cc3c(cc12)OCO3 (stereo not given) [Angoline] (10 µM)	0	0	0	0	0	0	0	0	0	0
O=[N+]([O-])/C=C/c1ccc2c(c1)OCO2 (2.5 µM)	0	0	0	0	0	0	0	0	0	0
COC[C@H]1OC(=O)c2coc3c2[C@@]1(C)C1=C(C3=O)[C@@H]2CCC(=O)[C@@]2(C)C[C@H]1OC(C)=O [Wortmannin] (2.5 µM)	0	0	0	0	0	0	0	0	3	0
CCCCNc1nc(N)c2[nH]c(=O)n(Cc3ccc(C)nc3)c2n1 (10 µM)	0	0	0	0	0	0	0	0	0	0
C[S+]([O-])/C=C/CCN=C=S (stereo not given) [Sulforaphene] (10 µM)	0	0	0	0	0	0	0	0	0	0
CC1=C[C@]23C(=O)[C@@H](C=C(CO)[C@@H](O)[C@]2(O)[C@H]1O)[C@H]1[C@@H](C[C@H]3C)C1(C)C [Ingenol] (10 µM)	0	0	0	0	0	0	0	0	0	0

SMILES	number of time points (ROR2)	number of time points (RPS6KA1)	number of time points (SPHK1)	number of time points (SRC)	number of time points (STK24)	number of time points (STK38)	number of time points (SYK)	number of time points (TEC)	number of time points (TYK2)	number of time points (ULK3)
O=c1[nH]c2ccccc2n1C1CCN(Cc2ccc(-c3[nH]c4cc5ncnc5cc4nc3-c3ccccc3)cc2)CC1 [AKT inhibitor VIII] (2.5 µM)	0	0	0	0	0	0	0	0	0	0
O=c1ccc2cc(O[C@@H]3O[C@H](CO)[C@@H](O)[C@H](O)[C@H]3O)c(O)cc2o1 [Esculin] (10 µM)	0	0	0	0	0	0	0	0	0	0
CC(C)(C)c1cc(C=C(C#N)C#N)cc(Br)c1O (2.5 µM)	0	0	0	0	0	0	0	0	0	0
COc1ccc2c(c1)[nH]c1c(C)nccc12 [Harmine] (10 µM)	0	0	0	0	0	0	0	0	0	0
CCOC(=O)c1c(/C(C#N)=C\N)c2ccc(Cl)c(Cl)c2n1C (10 µM)	0	0	0	0	0	0	0	0	0	0
O=c1cc(O)c2ccccc2o1 [4-Hydroxycoumarin] (10 µM)	0	0	0	0	0	0	0	0	0	0
O=C(O)c1nn(Cc2ccc(Cl)cc2Cl)c2ccccc12 [Lonidamine] (10 µM)	0	0	0	0	0	0	0	0	0	0
C/C=C(/C)C(=O)O[C@H]1[C@@H]2[C@H](C)C(=O)O[C@@H]2C[C@@H](C)[C@@H]2C=CC(=O)[C@]21C [Brevilin A] (2.5 µM)	0	0	0	0	0	0	0	0	0	0
COc1cc2c(cc1F)C(c1ccccc1Cl)=Nc1c(n[nH]c1C)N2 (0.5 µM)	0	0	0	0	0	0	0	0	0	0
O=Cc1cn(Cc2ccc(Cl)cc2)c2ccccc12 [Oncrasin-1] (10 µM)	0	0	0	0	0	0	0	0	0	0
C/C(O)=C(\C#N)C(=O)Nc1cc(Br)ccc1Br (10 µM)	0	0	0	0	0	0	0	0	0	0
N#CC(C#N)=Cc1ccc(O)c(O)c1 [Tyrphostin 23] (10 µM)	0	0	0	0	0	0	0	0	0	0
COc1ccc(/C=C/c2cc(OC)c(OC)c(OC)c2)cc1 (2.5 µM)	0	0	0	0	0	0	0	1	2	1
O=C(/C=C/c1ccccc1)OC[C@H]1O[C@@H](O[C@@H]2OC=C[C@H]3[C@H](O)[C@@H]4O[C@]4(CO)[C@@H]23)[C@H](O)[C@@H](O)[C@@H]1O [Picroside I] (10 µM)	0	0	0	0	0	0	0	0	0	0
N#CC(C#N)=Cc1ccc([N+](=O)[O-])c(O)c1 (10 µM)	0	0	0	0	0	0	0	0	0	0
Nc1ncnc2c1ncn2[C@@H]1O[C@@H]2COP(O)(=S)O[C@H]2[C@H]1O (stereo not given in full) [Sp-cAMPS (sodium salt)] (10 µM)	0	0	0	0	0	0	0	0	0	0

No new results follow: 2 of the compounds above.
SMILES	number of time points (ROR2)	number of time points (RPS6KA1)	number of time points (SPHK1)	number of time points (SRC)	number of time points (STK24)	number of time points (STK38)	number of time points (SYK)	number of time points (TEC)	number of time points (TYK2)	number of time points (ULK3)
N#CC(C#N)=Cc1ccc([N+](=O)[O-])c(O)c1 (10 µM)	0	0	0	0	0	0	0	0	0	0
Nc1ncnc2c1ncn2[C@@H]1O[C@@H]2COP(O)(=S)O[C@H]2[C@H]1O (stereo not given in full) [Sp-cAMPS (sodium salt)] (10 µM)	0	0	0	0	0	0	0	0	0	0
